{
  "sequences": {"note": "Amino acid sequences for entries named in this document (tags omitted).", "UniProt O15816": "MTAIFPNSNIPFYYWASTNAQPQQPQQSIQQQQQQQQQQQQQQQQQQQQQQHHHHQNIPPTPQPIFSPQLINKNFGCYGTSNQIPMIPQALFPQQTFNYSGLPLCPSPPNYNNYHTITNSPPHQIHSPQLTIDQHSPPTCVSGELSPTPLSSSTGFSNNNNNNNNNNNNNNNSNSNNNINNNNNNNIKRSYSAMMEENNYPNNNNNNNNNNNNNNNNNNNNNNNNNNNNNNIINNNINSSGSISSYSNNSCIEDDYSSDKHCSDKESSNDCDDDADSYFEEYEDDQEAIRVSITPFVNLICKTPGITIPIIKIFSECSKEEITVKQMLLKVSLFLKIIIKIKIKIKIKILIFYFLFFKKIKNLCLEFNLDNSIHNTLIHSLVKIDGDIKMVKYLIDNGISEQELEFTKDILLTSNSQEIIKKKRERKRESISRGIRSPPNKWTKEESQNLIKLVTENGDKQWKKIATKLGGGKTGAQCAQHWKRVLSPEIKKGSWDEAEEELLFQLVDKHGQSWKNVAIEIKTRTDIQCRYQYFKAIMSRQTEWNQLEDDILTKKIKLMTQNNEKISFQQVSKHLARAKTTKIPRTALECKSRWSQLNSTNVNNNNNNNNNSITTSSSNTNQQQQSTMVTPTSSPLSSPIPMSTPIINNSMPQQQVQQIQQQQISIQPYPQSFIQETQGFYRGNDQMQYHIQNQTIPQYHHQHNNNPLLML"},
  "source": "paper PMC6475656",
  "binders": {"B1": {"name": "Flag-tagged Sir2D (protein, UniProt Q54GV7 1-542)", "chain": "MNKRSLENNELNEIQNNQNKNNNNKINKEIPSDNTPLKKLKSINSLEQLQEVDEDEDLDVEIDTKLINKLDKKGRKYEFVGEGYSDEEQISDDYEDDESSEYEYGYENEDELLDDEDHLDNINEIKKIQKKLVNTETSTSITNTSSTTTTSTSTTTTTTTKTQINETILLDILNNNKDEVDDEIQRIGNNVGNSKEEEGEEEEENIELVARSFIYKHIQEKKSLGIDPIEFTKDIGFKLELEKDDDAWEIITAFLTRKKVAVNLFLNYLKYNTLARPYRKKIATLDLSTFEKVCQLFESSKNIVIITGAGVSVSCGIPDFRSKGGVYETIEKKYNLPRPESLFDIHYLRANPLPFFEFAKEIFPGNHKPSPTHSFIKLLDEKGKLLRNYTQNIDTLEHVAGIDREKLVNCHGSFSTATCITCKLTVDGTTIRDTIMKMEIPLCQQCNDGQSFMKPDIVFFGENLPDRFDQCVLKDVKDIDLLIVMGSSLQVQPVSLLPDIVDKQIPQILINRELVAQPHEFDYVYLGDCDQFVQDLLNKVKW"}},
  "target": "GFP-tagged MybB (Dictyostelium discoideum) (UniProt O15816)",
  "assay": "co-IP; lysates of Ax-2 cells coexpressing Flag-Sir2D and GFP-MybB (10 mmol/L PIPES pH 7.0, 100 mmol/L NaCl, 300 mmol/L sucrose, 3 mmol/L MgCl2, 1 mmol/L EGTA, 0.5% Triton X-100); 400 ug protein incubated 2 h at 4 °C with anti-GFP antibody, protein A-Sepharose; immunoblot with anti-Flag M2",
  "note": "Results are given in words; binding and its absence hold for the method and conditions named. Binding seen in cells or lysates may run through a third protein. Some results given as binding are weak or reduced against the parent protein; the word gives no strength. Sequences can lack the tags named with a protein.",
  "data": [
    {"binder": "B1", "values": [
      {"measurement": "binding", "value": "binds"}
    ]}
  ]
}
